Measured values: article PMC6010280
These are yes or no findings as the source states them, for the method shown. In cells and extracts the contact can be indirect. These calls come from enrichment with a bait or labelling near it, and not all partners need be listed. For some assays here: No binding means not detected with the bait.

Columns and labels:
[1] = target: T1, intein-BHMT (betaine homocysteine S-methyltransferase) (R. norvegicus) (UniProt O09171); experiment: affinity purification with mass spectrometry; intein-BHMT held on chitin beads; rat liver cytosol first passed over a bead-only and an intein column; 10 mM sodium phosphate pH 7.4, 5 mM EDTA, 0.1 mM EGTA, 4°C; bound proteins eluted with a 0-500 mM NaCl gradient (peak at 50-100 mM NaCl); LC-MS/MS; only the target purified
T1 sequence: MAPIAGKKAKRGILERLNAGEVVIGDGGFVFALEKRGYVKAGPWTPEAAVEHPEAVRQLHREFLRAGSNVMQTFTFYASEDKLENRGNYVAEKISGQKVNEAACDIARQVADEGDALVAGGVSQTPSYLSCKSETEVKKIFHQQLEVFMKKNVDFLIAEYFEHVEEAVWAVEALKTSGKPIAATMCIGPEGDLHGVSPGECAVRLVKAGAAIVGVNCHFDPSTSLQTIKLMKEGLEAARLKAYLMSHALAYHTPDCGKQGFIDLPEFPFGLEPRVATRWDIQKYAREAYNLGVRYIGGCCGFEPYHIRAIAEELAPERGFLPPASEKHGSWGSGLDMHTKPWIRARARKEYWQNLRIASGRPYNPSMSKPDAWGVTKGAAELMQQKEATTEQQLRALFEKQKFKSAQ

[2] = target: T1, intein-BHMT (betaine homocysteine S-methyltransferase) (R. norvegicus); experiment: affinity purification with mass spectrometry; same intein-BHMT chitin column after the salt gradient; proteins recovered together with BHMT upon intein excision with 30 mM 2-mercaptoethanol, 48 h at 23°C (strong interactors); LC-MS/MS; only the target purified
[3] = target: T1, intein-BHMT (betaine homocysteine S-methyltransferase) (R. norvegicus); experiment: affinity purification with mass spectrometry; same columns; all eluates of the intein-BHMT column compared with those of the bead-only and intein columns; only the target purified

B1: Tyrosine-protein phosphatase non-receptor type 23, PTPN23 (protein, UniProt O88902 1-1499)
chain: LNVNLMLGQAQECLLEKSMLDNRKSFLVARISAQVVDYYKEACRALENPDTASLLGRIQKDWKKLVQMKIYYFAAVAHLHMGKQAEEQQKFGERVAYFQSALDKLNEAIKLAKGQPDTVQDALRFAMDVIGGKYNSAKKDNDFIYHEAVPALDTLQPVKGAPLVKPLPVNPTDPAVTGPDIFAKLVPMAAHEASSLYSEEKAKLLREMLAKIEDKNEVLDQFMDSMQLDPDTVDNLDAYNHIPPQLMEKCAALSVRPDTVKNLVQSMQVLSGVFTDVEASLKDIRDLLEEDELQEQKLQETLGQAGAGPGPSVTKAELGEVRREWAKYTEVHEKASFTNSELHRAMNLHVGNLRLLSGPLDQVRAALPTPALTPEDKAVLQNLKRILAKVQEMRDQRVSLEQQLRELIQKDDITASLVTTDHSEMKKLFEEQLKKYDQLKVYLEQNLAAQDNVLRALTEANVQYAAVRRVLSELDQKWNSTLQTLVASYEAYEDLMKKSQEGKDFYADLESKVAALLERAQSLCRAQEAARQQLLDRELKKKAPPPRPTAPKPLLSRREEGEAAEAGDQPEELRSLPPDMMAGPRLPDPFLGTAAPLHFSPGPFPGSTGPATHYLSGPLPPGTYSGPTQLMQPRAAVPMAPGPVLYPAPVYTSELGLVPRSSPQHGIVSSPYAGVGPPQPIVGLPSAPPPQFSGPELAMDVRPATTTVDSVQAPISSHMALRPGPAPAPPQPCFPVPQPVPQSVPQPQPLPTPYTYSIGTKQHLTGPLPQHHFPPGIPTSFPAPRIGPQPPPQLQPQPQPQPQPQPPPQPQPQPQPQPQPQPQPQPQRPVFGPQPTQQPLPFQHPHLFPSQAPGILTPPPPYPFTPQPGVLGQPPPTRHTQLYPGPPPDTLPPHSGALPFPSPGPPHPHPTLAYGPAPSPRPLGPQATPVSIRGPPPANQPAPSPHLVPSPAPSPGPGPVPSRPPTAEPPPCLRRGAAAADLLSSSPESQHGGTQPPGGGQPLLQPTKVDAAERPTAQALRLIEQDPYEHPERLQKLQQELESFRGQLGDAGALDAVWRELQEAQEHDARGRSIAIARCYSLKNRHQDVMPYDSNRVVLRSGKDDYINASCVEGLSPYCPPLVATQRPLPGTAADFWLMVHEQKVSVIVMLVSEAEMEKQKVARYFPIERGQPMVHGALSVALSSVRTTDTHVERVLSLQFRDQSLKRSLVHLHFPTWPELGLPDSPGNLLRFIQEVHAHYLHQRPLHTPIVVHCSSGVGRTGAFALLYAAVQEVEAGSRIPELPQLVRRMRQQRKHMLQEKLHLKFCHEALVRHVEQVLQRHGVPPPGKPVASMSVSQKSHLPQDSQDLVLGGDVPISSIQATIAKLSIRPLGGLDSPAASLPSLVEPPGLPPASLPEPTPAPPSSPPPPSSPLPEPPQPEEEPSVPEAPSLGPPSSSLELLASLTPEAFSLDSSLRGKQRMSKQNFLQAHNGQGLRAAQPTDDPLSLLDPLWTLNKT
[1]
  binding: binds
[2]
  binding: binds

B2: glutathione-S-transferase alpha type 2 (liver cytosol) (protein, UniProt P04903 1-222)
chain: MSGKPVLHYFNARGRMECIRWLLAAAGVEFEEKLIQSPEDLEKLKKDGNLMFDQVPMVEIDGMKLAQTRAILNYIATKYDLYGKDMKERALIDMYSEGILDLTEMIIQLVICPPDQREAKTALAKDRTKNRYLPAFEKVLKSHGQDYLVGNRLTRVDIHLLELLLYVEEFDASLLTSFPLLKAFKSRISSLPNVKKFLQPGSQRKPAMDAKQIEEARKVFKF
[3]
  binding: no binding

B3: alpha-2u globulin PGCL1/Major urinary protein (liver cytosol) (protein, UniProt P02761 20-181)
chain: EEASSTRGNLDVAKLNGDWFSIVVASNKREKIEENGSMRVFMQHIDVLENSLGFKFRIKENGECRELYLVAYKTPEDGEYFVEYDGGNTFTILKTDYDRYVMFHLINFKNGETFQLMVLYGRTKDLSSDIKEKFAKLCEAHGITRDNIIDLTKTDRCLQARG
[3]
  binding: no binding

B4: ornithine transcarbamylase (liver cytosol) (protein, UniProt P00481 33-354)
chain: SQVQLKGRDLLTLKNFTGEEIQYMLWLSADLKFRIKQKGEYLPLLQGKSLGMIFEKRSTRTRLSTETGFALLGGHPSFLTTQDIHLGVNESLTDTARVLSSMTDAVLARVYKQSDLDILAKEATIPIVNGLSDLYHPIQILADYLTLQEHYGSLKGLTLSWIGDGNNILHSIMMSAAKFGMHLQAATPKGYEPDPNIVKLAEQYAKENGTRLSMTNDPLEAARGGNVLITDTWISMGQEDEKKKRLQAFQGYQVTMKTAKVAASDWTFLHCLPRKPEEVDDEVFYSPRSLVFPEAENRKWTIMAVMVSLLTDYSPVLQKPKF
[3]
  binding: no binding

B5: aldolase b protein (ALDOB) (liver cytosol) (protein, UniProt P00884 1-364)
chain: MAHRFPALTSEQKKELSEIAQRIVANGKGILAADESVGTMGNRLQRIKVENTEENRRQFRELLFSVDNSISQSIGGVILFHETLYQKDSQGKLFRNILKEKGIVVGIKLDQGGAPLAGTNKETTIQGLDGLSERCAQYKKDGVDFGKWRAVLRISDQCPSSLAIQENANALARYASICQQNGLVPIVEPEVLPDGDHDLEHCQYVSEKVLAAVYKALNDHHVYLEGTLLKPNMLTAGHACTKKYTPEQVAMATVTALHRTVPAAVPSICFLSGGMSEEDATLNLNAIYRCPLPRPWKLSFSYGRALQASALAAWGGKAANKKATQEAFMKRAVANCQAAQGQYVHTGSSGAASTQSLFTASYTY
[3]
  binding: no binding

B6: 10-formyltetrahydrofolate dehydrogenase (Aldh1l1) (protein, UniProt P28037 1-902)
chain: MKIAVIGQSLFGQEVYCQLRKEGHEVVGVFTIPDKDGKADPLGLEAEKDGVPVFKFPRWRARGQALPEVVAKYQALGAELNVLPFCSQFIPMEVINAPRHGSIIYHPSLLPRHRGASAINWTLIHGDKKGGFTIFWADDGLDTGDLLLQKECEVLPDDTVSTLYNRFLFPEGIKGMVQAVRLIAEGTAPRCPQSEEGATYEGIQKKETAKINWDQPAEAIHNWIRGNDKVPGAWTEACGQKLTFFNSTLNTSGLSTQGEALPIPGAHRPGVVTKAGLILFGNDDRMLLVKNIQLEDGKMMPASQFFKGSASSDLELTEAELATAEAVRSSWMRILPNVPEVEDSTDFFKSGAASVDVVRLVEEVKELCDGLELENEDVYMATTFRGFIQLLVRKLRGEDDESECVINYVEKAVNKLTLQMPYQLFIGGEFVDAEGSKTYNTINPTDGSVICQVSLAQVSDVDKAVAAAKEAFENGLWGKINARDRGRLLYRLADVMEQHQEELATIEALDAGAVYTLALKTHVGMSIQTFRYFAGWCDKIQGATIPINQARPNRNLTLTKKEPVGVCGIVIPWNYPLMMLSWKTAACLAAGNTVVIKPAQVTPLTALKFAELTLKAGIPKGVVNILPGSGSLVGQRLSDHPDVRKIGFTGSTEVGKHIMKSCALSNVKKVSLELGGKSPLIIFADCDLNKAVQMGMSSVFFNKGENCIAAGRLFVEESIHNQFVQKVVEEVEKMKIGNPLERDTNHGPQNHEAHLRKLVEYCQRGVKEGATLVCGGNQVPRPGFFFQPTVFTDVEDHMYIAKEESFGPIMIISRFADGDVDAVLSRANATEFGLASGVFTRDINKALYVSDKLQAGTVFINTYNKTDVAAPFGGFKQSGFGKDLGEAALNEYLRIKTVTFEY
[3]
  binding: no binding

B7: carbamoyl phosphate synthetase 1 (protein, UniProt P07756 39-1500)
chain: LSVKAQTAHIVLEDGTKMKGYSFGHPSSVAGEVVFNTGLGGYSEALTDPAYKGQILTMANPIIGNGGAPDTTARDELGLNKYMESDGIKVAGLLVLNYSHDYNHWLATKSLGQWLQEEKVPAIYGVDTRMLTKIIRDKGTMLGKIEFEGQSVDFVDPNKQNLIAEVSTKDVKVFGKGNPTKVVAVDCGIKNNVIRLLVKRGAEVHLVPWNHDFTQMDYDGLLIAGGPGNPALAQPLIQNVKKILESDRKEPLFGISTGNIITGLAAGAKSYKMSMANRGQNQPVLNITNRQAFITAQNHGYALDNTLPAGWKPLFVNVNDQTNEGIMHESKPFFAVQFHPEVSPGPTDTEYLFDSFFSLIKKGKGTTITSVLPKPALVASRVEVSKVLILGSGGLSIGQAGEFDYSGSQAVKAMKEENVKTVLMNPNIASVQTNEVGLKQADAVYFLPITPQFVTEVIKAERPDGLILGMGGQTALNCGVELFKRGVLKEYGVKVLGTSVESIMATEDRQLFSDKLNEINEKIAPSFAVESMEDALKAADTIGYPVMIRSAYALGGLGSGICPNKETLMDLGTKAFAMTNQILVERSVTGWKEIEYEVVRDADDNCVTVCNMENVDAMGVHTGDSVVVAPAQTLSNAEFQMLRRTSINVVRHLGIVGECNIQFALHPTSMEYCIIEVNARLSRSSALASKATGYPLAFIAAKIALGIPLPEIKNVVSGKTSACFEPSLDYMVTKIPRWDLDRFHGTSSRIGSSMKSVGEVMAIGRTFEESFQKALRMCHPSVDGFTPRLPMNKEWPANLDLRKELSEPSSTRIYAIAKALENNMSLDEIVKLTSIDKWFLYKMRDILNMDKTLKGLNSESVTEETLRQAKEIGFSDKQISKCLGLTEAQTRELRLKKNIHPWVKQIDTLAAEYPSVTNYLYVTYNGQEHDIKFDEHGIMVLGCGPYHIGSSVEFDWCAVSSIRTLRQLGKKTVVVNCNPETVSTDFDECDKLYFEELSLERILDIYHQEACNGCIISVGGQIPNNLAVPLYKNGVKIMGTSPLQIDRAEDRSIFSAVLDELKVAQAPWKAVNTLNEALEFANSVGYPCLLRPSYVLSGSAMNVVFSEDEMKRFLEEATRVSQEHPVVLTKFIEGAREVEMDAVGKEGRVISHAISEHVEDAGVHSGDATLMLPTQTISQGAIEKVKDATRKIAKAFAISGPFNVQFLVKGNDVLVIECNLRASRSFPFVSKTLGVDFIDVATKVMIGESVDEKHLPTLEQPIIPSDYVAIKAPMFSWPRLRDADPILRCEMASTGEVACFGEGIHTAFLKAMLSTGFKIPQKGILIGIQQSFRPRFLGVAEQLHNEGFKLFATEATSDWLNANNVPATPVAWPSQEGQNPSLSSIRKLIRDGSIDLVINLPNNNTKFVHDNYVIRRTAVDSGIALLTNFQVTKLFAEAVQKARTVDSKSLFHYRQYSAGKAA
[3]
  binding: no binding
